Results are given in words; binding and its absence hold for the method and conditions named. In cells and extracts the contact can be indirect. Some entries that bind do so weakly or less than the wild type.

The results in this text go back to paper PMC3416671.

The target in this assay is T1, endogenous RNF11 (murine primary cortical neurons) (mouse (endogenous in primary cortical neurons)) (UniProt Q9QYK7).
T1 sequence: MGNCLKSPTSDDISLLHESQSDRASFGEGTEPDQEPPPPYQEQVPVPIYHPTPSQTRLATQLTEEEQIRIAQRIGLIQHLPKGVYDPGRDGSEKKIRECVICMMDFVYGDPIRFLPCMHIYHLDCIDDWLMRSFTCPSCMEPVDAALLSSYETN
The assay can be described thus: co-IP; lysates of murine primary cortical neurons stimulated with 10 ng/ml TNF-α for 0 or 30 minutes; IP with RNF11 antibody; control IP with antibody omitted; immunoblot with anti-A20 and Itch; densitometry normalised to input, 0 minutes set at 100%. In general terms: Immunoblotting shows a protein as a band on a membrane.

B1: endogenous A20 (murine primary cortical neurons) (protein, UniProt Q60769 1-775)
chain: MAEQLLPQALYLSNMRKAVKIRERTPEDIFKPTNGIIYHFKTMHRYTLEMFRTCQFCPQFREIIHKALIDRSVQASLESQKKLNWCREVRKLVALKTNGDGNCLMHAACQYMWGVQDTDLVLRKALCSTLKETDTRNFKFRWQLESLKSQEFVETGLCYDTRNWNDEWDNLVKMASADTPAARSGLQYNSLEEIHIFVLSNILRRPIIVISDKMLRSLESGSNFAPLKVGGIYLPLHWPAQECYRYPIVLGYDSQHFVPLVTLKDSGPELRAVPLVNRDRGRFEDLKVHFLTDPENEMKEKLLKEYLIVMEIPVQGWDHGTTHLINAAKLDEANLPKEINLVDDYFELVQHEYKKWQENSDQARRAAHAQNPLEPSTPQLSLMDIKCETPNCPFFMSVNTQPLCHECSERRQKNQSKLPKLNSKLGPEGLPGVGLGSSNWSPEETAGGPHSAPPTAPSLFLFSETTAMKCRSPGCPFTLNVQHNGFCERCHARQINASHTADPGKCQACLQDVTRTFNGICSTCFKRTTAEPSSSLTSSIPASCHQRSKSDPSQLIQSLTPHSCHRTGNVSPSGCLSQAARTPGDRAGTSKCRKAGCMYFGTPENKGFCTLCFIEYRENKQSVTASEKAGSPAPRFQNNVPCLGRECGTLGSTMFEGYCQKCFIEAQNQRFHEARRTEEQLRSSQHRDMPRTTQVASRLKCARASCKNILACRSEELCMECQHLSQRVGSVAHRGEPTPEEPPKQRCRAPACDHFGNAKCNGYCNECYQFKQMYG
For B1, the binding result is “binds”.
